# Laboratory results published in patent US20230304023A1, “BILE SALTS B[…] USE THEREOF FOR DIAGNOSTIC AND T[…]” (INSERM (INSTITUT NATIONAL DE LA SANTÉ ET DE LA RECHERCHE …, priority 2020, published 2023).
# At least one read-out could not be matched to a standard name with certainty.
# B1: SV_3-3-16: TcpP bile salt sensing domain variant, loop DFLT (SEQ ID NO:9/29), CadC fusion SEQ ID NO:53 (protein)
# chain: MQQPVVRVGEWLVTPSINQISRNGRQLTLEPRLIDLLVFFAQHSGEVLSRDELIDNVWKRSIVTNHVVTQSISELRKSLKDNDEDSPVYIATVPKRGYKLMVPVIWYSEEEGEEIMLSSPPPIPEAVPATDSPSHSLNIQNTATPPEQSPVKSKRVVPYLVFSALYVALLPVIWWSYGQWYQHELAGITHDLRDLARLPGITIQKLSEQKLTFAIDQHQCSVDFLTKTLECTKN
# modifications: Synthetic bile salts chimeric receptor
# Tested on: Taurocholic acid
# Format: cell-based, E. coli
# Settings: taurocholic acid titration, response at EC50
molecule,measurement,value
B1,Response EC50 (RPU),59.34 RPU
